Patent publication US20230220399
For some of these results: A negative result means that nothing was seen under these conditions.

Amino acid sequences for entries named in this document (tags omitted). Residues count along the entry.
UniProt P02787, 20-698: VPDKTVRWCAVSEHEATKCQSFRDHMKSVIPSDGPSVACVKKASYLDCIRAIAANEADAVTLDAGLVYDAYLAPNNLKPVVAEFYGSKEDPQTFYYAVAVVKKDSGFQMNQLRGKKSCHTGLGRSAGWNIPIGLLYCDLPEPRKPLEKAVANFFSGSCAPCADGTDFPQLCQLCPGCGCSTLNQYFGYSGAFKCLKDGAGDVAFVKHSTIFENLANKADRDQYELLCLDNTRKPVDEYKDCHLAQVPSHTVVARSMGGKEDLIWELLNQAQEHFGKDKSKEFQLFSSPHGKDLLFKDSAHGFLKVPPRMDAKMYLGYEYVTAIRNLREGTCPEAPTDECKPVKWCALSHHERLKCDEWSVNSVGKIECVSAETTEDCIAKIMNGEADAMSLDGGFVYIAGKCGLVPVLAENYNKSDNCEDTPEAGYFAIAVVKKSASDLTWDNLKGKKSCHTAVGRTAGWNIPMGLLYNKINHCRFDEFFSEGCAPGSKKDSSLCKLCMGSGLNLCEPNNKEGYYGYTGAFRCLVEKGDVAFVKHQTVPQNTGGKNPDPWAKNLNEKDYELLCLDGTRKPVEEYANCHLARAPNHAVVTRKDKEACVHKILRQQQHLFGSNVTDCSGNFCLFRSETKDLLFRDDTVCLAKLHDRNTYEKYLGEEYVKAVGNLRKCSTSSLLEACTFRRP

Columns and labels:
[1] = system: KRAS wild-type (Homo sapiens); assay: BLI; settings: Nap-dU at n (6) positions [4,9,13,19,26,27,28,30,39]; No binding; SB18, 37 C; purified recombinant protein; protein details: His tag, Abcam ab96817; label: 5'-biotin; single-stranded DNA; letters built from the parent sequence and the stated change; variant of AD003
[2] = system: KRAS wild-type (Homo sapiens); assay: binding assay; settings: Nap-dU at n (6) positions [4,9,13,19,26,27,28,30,39]; No binding; ELISA, SB18, 37 C; purified recombinant protein; protein details: His tag, Abcam ab96817; label: 5'-biotin; single-stranded DNA; letters built from the parent sequence and the stated change; variant of AD003
[3] = molecular target: transferrin (TF) (Homo sapiens) (UniProt P02787); assay: binding assay; settings: No binding, ELISA, SB18, 37 C, purified recombinant protein, protein details: Abcam ab155698, single-stranded DNA, letters built from the parent sequence and the stated change
[4] = molecular target: PD-L1 (PD-1/PD-L1 inhibitor screening assay kit) (UniProt Q9NZQ7); assay: inhibition of the protein; settings: purified recombinant protein, protein details: BPS kit, single-stranded DNA, letters built from the parent sequence and the stated change, dose not given here

“GACTAGCATAAGTCCGGATGGCAGCTTTATGCCGACCAT [AD005]”: no binding [1]; no binding [2].
“GAGTGACCGTCTGCCTGAAAGTCCGGATGGCAGCTTTACAGGCAGAACTAACGTACACAGCCACACCACCAGCC [TD005]”: no binding ([3]; Nap-dU at n (6) positions [22,28,35,36,37,49,54], label: …).
For “GAGTGACCGTCTGCCTGACAACAACGAGTGCGAACTGTACTACTTGATAGAGACCCTCAGCCACACCACCAGCC [AP013]”, the “functional effect of the aptamer” value ([4]; Nap-dU at n (6) positions [Nap-dU at 29,36,38,41,44,45,48,57], label: 5'-biotin) was “active”.
“GAGTGACCGTCTGCCTGGATATGCCTCTTCTGCAGTTACGGTGTGATCGCCCAATAGCAGCCACACCACCAGCC [TD009]”: no binding ([3]; Nap-dU at n (6) positions [Nap-dU at 20,22,26,28,29,31,36,37,42,44,47,55], label: 5'-biotin).
“GAGTGACCGTCTGCCTGGGACTAGCATAAGTCCGGATGGCAGCTTTATGCCGACCATCAGCCACACCACCAGCC [TD001]”: no binding ([3]; Nap-dU at n (6) positions [22,27,31,37,44,45,46,48,57], label: 5'-biotin).
“TCCCAGGTCGAGCTGTACGCGTGTGTGACCTTACTGATAATCACCTTGAATAGTGTAC [AP031]” was tested, and the “functional effect of the aptamer” value ([4]; Nap-dU at n (6) positions [Nap-dU at 1,8,14,16,22,24,26,31,32,35,38,41,46,47,51,54,56]) was “active”.
